Laboratory results reported in patent US20090240037A1 (IMMUNOMEDICS, published 2009).
No constants are given. Whether binding was seen depends on the method and setting. Some binding calls cover weakened binding; strength is not graded here.

Sequences of proteins named here, by UniProt entry; tags and fusion partners are left off. Residues count along the entry.
UniProt P06731, residues 35-685: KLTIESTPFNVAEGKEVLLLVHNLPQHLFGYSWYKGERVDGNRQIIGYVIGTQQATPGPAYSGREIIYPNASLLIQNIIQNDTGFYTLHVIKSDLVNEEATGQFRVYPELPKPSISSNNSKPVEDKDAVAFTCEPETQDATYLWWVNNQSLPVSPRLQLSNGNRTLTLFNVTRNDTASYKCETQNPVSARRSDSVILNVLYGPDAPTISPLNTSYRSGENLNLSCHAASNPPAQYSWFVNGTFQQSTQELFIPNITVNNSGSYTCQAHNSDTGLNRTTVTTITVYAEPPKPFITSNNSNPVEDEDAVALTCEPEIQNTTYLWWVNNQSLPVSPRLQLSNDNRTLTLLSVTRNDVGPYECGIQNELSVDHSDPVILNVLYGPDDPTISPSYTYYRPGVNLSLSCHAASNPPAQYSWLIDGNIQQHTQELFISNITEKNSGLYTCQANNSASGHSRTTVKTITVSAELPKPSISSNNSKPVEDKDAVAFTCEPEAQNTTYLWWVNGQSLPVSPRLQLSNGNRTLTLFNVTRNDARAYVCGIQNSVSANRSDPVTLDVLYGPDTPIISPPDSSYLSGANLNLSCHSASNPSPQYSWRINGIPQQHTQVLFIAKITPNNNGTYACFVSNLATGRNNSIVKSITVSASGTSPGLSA

Biological target: soluble CEA (Scripps Laboratories) (UniProt P06731)
Test: BIAcore; inferred by the filing from binding of W12 (hMN14-specific anti-idiotype) to chip-bound BS1.5H

binding: binds
B1: BS1.5H (h679 x hMN14 bispecific diabody) (bispecific antibody)
chain 1: MEVQLVESGGDLVKPGGSLKLSCAASGFTFSIYTMSWLRQTPGKGLEWVATLSGDGDDIYYPDSVKGRFTISRDNAKNSLYLQMNSLRAEDTALYYCARVRLGDWDFDVWGQGTTVSVSSGGGGSDIQLTQSPSSLSASVGDRVTITCKASQDVGTSVAWYQQKPGKAPKLLIYWTSTRHTGVPSRFSGSGSGTDFTFTISSLQPEDIATYYCQQYSLYRSFGQGTKVEIKRLEHHHHHH
chain 2: MEVQLVESGGGVVQPGRSLRLSCSASGFDFTTYWMSWVRQAPGKGLEWIGEIHPDSSTINYAPSLKDRFTISRDNAKNTLFLQMDSLRPEDTGVYFCASLYFGFPWFAYWGQGTPVTVSGGGGSDIVMTQSPSSLAVSPGERVTLTCKSSQSLFNSRTRKNYLGWYQQKPGQSPKLLIYWASTRESGVPDRFSGSGSGTDFTLTINSLQAEDVAVYYCTQVYYLCTFGAGTKLELKRLEHHHHHH
